Drug screen on melanoma cell lines: apoptosis marker

From a melanoma drug combination screen (doi:10.1371/journal.pone.0140310); values rounded.

Compounds and concentrations:
PF-562271: CN(c1ncccc1CNc1nc(Nc2ccc3c(c2)CC(=O)N3)ncc1C(F)(F)F)S(C)(=O)=O at 0.4 µM
bexarotene: C=C(c1ccc(C(=O)O)cc1)c1cc2c(cc1C)C(C)(C)CCC2(C)C at 10 µM
sorafenib: CNC(=O)c1cc(Oc2ccc(NC(=O)Nc3ccc(Cl)c(C(F)(F)F)c3)cc2)ccn1 at 2 µM
GW2580: COc1ccc(COc2ccc(Cc3cnc(N)nc3N)cc2OC)cc1 at 5 µM
tipifarnib: Cn1cncc1[C@@](N)(c1ccc(Cl)cc1)c1ccc2c(c1)c(-c1cccc(Cl)c1)cc(=O)n2C at 0.05 µM
A-769662: N#Cc1c(O)c2c(-c3ccc(-c4ccccc4O)cc3)csc2[nH]c1=O at 10 µM
gemcitabine: Nc1ccn([C@@H]2O[C@H](CO)[C@@H](O)C2(F)F)c(=O)n1 at 0.002 µM
CX-4945: O=C(O)c1ccc2c(c1)nc(Nc1cccc(Cl)c1)c1ccncc12 at 2 µM
FH535: Cc1cc([N+](=O)[O-])ccc1NS(=O)(=O)c1cc(Cl)ccc1Cl at 5 µM

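The test systems are human melanoma cell lines, treated with two drugs together for 72 h and then stained and imaged. Values are the share of nuclei positive for cleaved PARP as a percentage of the same share in the DMSO control: 100 is the control level, higher means more apoptosis. Every drug was used at one fixed concentration, the higher of two screened. The file gives one value for each pair and line, without errors, so small differences may be noise. The marker varies much from line to line, for technical or biological reasons.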 An unselected part of the screen is shown. An entry leaves out what has no value listed here. A dash means that no value is listed here.

* bexarotene + CX-4945 | WM1745: 164; SK-MEL-28: 315; LOX IMVI: 102; SK-MEL-30: 62.9; WM451Lu: 84.3; MEL-HO: 261; SK-MEL-5: 68.4; WM1716: 167
* sorafenib + tipifarnib | WM1745: 85.4; SK-MEL-28: 101; LOX IMVI: 96.5; SK-MEL-30: 75.3; WM451Lu: 123; MEL-HO: 63.4; SK-MEL-5: 137; WM1716: 91.4
* PF-562271 + A-769662 | SK-MEL-28: 173; LOX IMVI: 122; SK-MEL-30: 51.5; WM451Lu: 67.3; MEL-HO: 105; SK-MEL-5: 88.7; WM1716: 42.1
* A-769662 + gemcitabine | SK-MEL-28: 57.7; LOX IMVI: 126; SK-MEL-30: 50.3; WM451Lu: 83.5; MEL-HO: 136; SK-MEL-5: 41.5; WM1716: 239
* tipifarnib + A-769662 | WM1745: 109; SK-MEL-28: 185; LOX IMVI: 99.6; SK-MEL-30: 136; WM451Lu: 52.2; MEL-HO: 97.5; SK-MEL-5: 81.0; WM1716: 146
* GW2580 + bexarotene | SK-MEL-28: 23.7; LOX IMVI: 116; SK-MEL-30: 72.3; WM451Lu: 56.8; MEL-HO: 386; SK-MEL-5: 112; WM1716: 15.3
* sorafenib + gemcitabine | WM1745: 170; SK-MEL-28: 49.7; LOX IMVI: 185; SK-MEL-30: 81.8; WM451Lu: 76.7; MEL-HO: 119; SK-MEL-5: 138; WM1716: 113
* A-769662 + FH535 | WM1745: 122; SK-MEL-28: 87.4; LOX IMVI: 106; SK-MEL-30: 118; WM451Lu: 98.2; MEL-HO: 134; SK-MEL-5: 29.4; WM1716: 44.3
* CX-4945 + FH535 | SK-MEL-28: 198; LOX IMVI: 165; SK-MEL-30: 182; WM451Lu: 203; MEL-HO: 292; SK-MEL-5: 135; WM1716: 475
* GW2580 + PF-562271 | SK-MEL-28: 96.4; LOX IMVI: 126; SK-MEL-30: 142; WM451Lu: 43.7; MEL-HO: 108; SK-MEL-5: 192; WM1716: 91.4
* A-769662 + bexarotene | SK-MEL-28: 144; LOX IMVI: 112; SK-MEL-30: 60.8; WM451Lu: 218; MEL-HO: 47.3; SK-MEL-5: 97.2; WM1716: 68.6
* gemcitabine + PF-562271 | WM1745: 181; SK-MEL-28: 21.7; LOX IMVI: 327; SK-MEL-30: 130; WM451Lu: 174; MEL-HO: 75.6; SK-MEL-5: 180; WM1716: 194
* GW2580 + FH535 | WM1745: 133; SK-MEL-28: 516; LOX IMVI: 54.0; SK-MEL-30: 81.8; WM451Lu: 34.8; MEL-HO: 200; SK-MEL-5: 102; WM1716: 57.6
* sorafenib + GW2580 | SK-MEL-28: 159; LOX IMVI: 163; SK-MEL-30: 76.7; WM451Lu: 77.4; MEL-HO: 368; SK-MEL-5: 665; WM1716: 109
* sorafenib + PF-562271 | WM1745: 118; SK-MEL-28: 32.7; LOX IMVI: 90.4; SK-MEL-30: 36.6; WM451Lu: 54.4; MEL-HO: 359; SK-MEL-5: 57.4; WM1716: 138
* GW2580 + tipifarnib | WM1745: 99.7; SK-MEL-28: 170; LOX IMVI: 139; SK-MEL-30: 92.9; WM451Lu: 126; MEL-HO: 80.2; SK-MEL-5: 131; WM1716: 81.6
* GW2580 + A-769662 | WM1745: 121; SK-MEL-28: 22.4; LOX IMVI: 120; SK-MEL-30: 61.3; WM451Lu: 179; MEL-HO: 47.4; SK-MEL-5: 78.2; WM1716: 162
* gemcitabine + FH535 | SK-MEL-28: 72.7; LOX IMVI: 172; SK-MEL-30: 86.8; WM451Lu: 101; MEL-HO: 163; SK-MEL-5: 243; WM1716: 102
* CX-4945 + GW2580 | SK-MEL-28: 74.8; LOX IMVI: 28.7; SK-MEL-30: 183; WM451Lu: 794; MEL-HO: 258; SK-MEL-5: 380; WM1716: 163
* sorafenib + FH535 | SK-MEL-28: 185; LOX IMVI: 518; SK-MEL-30: 265; WM451Lu: 90.3; MEL-HO: 165; SK-MEL-5: 341; WM1716: 612
* sorafenib + bexarotene | WM1745: 104; SK-MEL-28: 208; LOX IMVI: 120; SK-MEL-30: 142; WM451Lu: 152; MEL-HO: 145; SK-MEL-5: 161; WM1716: 69.3
* gemcitabine + GW2580 | SK-MEL-28: 30.9; LOX IMVI: 50.9; SK-MEL-30: 69.0; WM451Lu: 118; MEL-HO: 108; SK-MEL-5: 138; WM1716: 188
* tipifarnib + gemcitabine | WM1745: 119; SK-MEL-28: 33.5; LOX IMVI: 345; SK-MEL-30: 105; WM451Lu: 246; MEL-HO: 117; SK-MEL-5: 193; WM1716: 110
* tipifarnib + PF-562271 | WM1745: 121; SK-MEL-28: 126; LOX IMVI: 157; SK-MEL-30: 95.3; WM451Lu: 98.6; MEL-HO: 355; SK-MEL-5: 78.3; WM1716: 149
* FH535 + PF-562271 | SK-MEL-28: 376; LOX IMVI: 52.1; SK-MEL-30: 243; WM451Lu: 275; MEL-HO: 175; SK-MEL-5: 237; WM1716: 139
* bexarotene + gemcitabine | WM1745: 178; SK-MEL-28: 81.9; LOX IMVI: 118; SK-MEL-30: 116; WM451Lu: 256; MEL-HO: 87.5; SK-MEL-5: 36.8; WM1716: 113
* tipifarnib + bexarotene | WM1745: 75.4; SK-MEL-28: 81.7; LOX IMVI: 126; SK-MEL-30: 33.5; WM451Lu: 94.0; MEL-HO: 67.5; SK-MEL-5: 98.4; WM1716: 184
* CX-4945 + PF-562271 | WM1745: 164; SK-MEL-28: 62.9; LOX IMVI: 85.5; SK-MEL-30: 212; WM451Lu: 268; MEL-HO: 123; SK-MEL-5: 104; WM1716: 486
* bexarotene + PF-562271 | WM1745: 132; SK-MEL-28: 109; LOX IMVI: 143; SK-MEL-30: 87.3; WM451Lu: 65.7; MEL-HO: 48.5; SK-MEL-5: 191; WM1716: 158
* gemcitabine + CX-4945 | WM1745: 217; SK-MEL-28: 190; LOX IMVI: 83.3; SK-MEL-30: 125; WM451Lu: 441; MEL-HO: 215; SK-MEL-5: 424; WM1716: 259
* A-769662 + sorafenib | SK-MEL-28: 115; LOX IMVI: 145; SK-MEL-30: 39.7; WM451Lu: 43.9; MEL-HO: 45.9; SK-MEL-5: 229; WM1716: 131
* sorafenib + CX-4945 | WM1745: 141; SK-MEL-28: 225; LOX IMVI: 62.0; SK-MEL-30: 202; WM451Lu: 73.8; MEL-HO: 229; SK-MEL-5: 126; WM1716: 100
* A-769662 + CX-4945 | SK-MEL-28: 95.8; LOX IMVI: 142; SK-MEL-30: 136; WM451Lu: 196; MEL-HO: 121; SK-MEL-5: 158; WM1716: 144
* FH535 + tipifarnib | WM1745: 243; SK-MEL-28: 119; LOX IMVI: 146; SK-MEL-30: 81.5; WM451Lu: 32.1; MEL-HO: 118; SK-MEL-5: 145; WM1716: 115
* FH535 + bexarotene | SK-MEL-28: 150; LOX IMVI: 217; SK-MEL-30: 94.4; WM451Lu: 91.1; MEL-HO: 222; SK-MEL-5: 123; WM1716: 46.4

The last 3 entries again:

| Drugs | WM1745 | SK-MEL-28 | LOX IMVI | SK-MEL-30 | WM451Lu | MEL-HO | SK-MEL-5 | WM1716 |
|---|---|---|---|---|---|---|---|---|
| A-769662 + CX-4945 | - | 95.8 | 142 | 136 | 196 | 121 | 158 | 144 |
| FH535 + tipifarnib | 243 | 119 | 146 | 81.5 | 32.1 | 118 | 145 | 115 |
| FH535 + bexarotene | - | 150 | 217 | 94.4 | 91.1 | 222 | 123 | 46.4 |